Cleaved PARP in drug-treated melanoma cells

First drug in all entries: nilotinib, 1 µM, Cc1cn(-c2cc(NC(=O)c3ccc(C)c(Nc4nccc(-c5cccnc5)n4)c3)cc(C(F)(F)F)c2)cn1

Drugs:
ruxolitinib, 5 µM: N#CC[C@H](C1CCCC1)n1cc(-c2ncnc3[nH]ccc23)cn1
stibogluconate, 10 µM: O=C(O)[C@@H]1[O][Sb](=[O])([O][Sb]2(=[O])[O][C@H]([C@H](O)CO)[C@H](O)[C@H](C(=O)O)[O]2)[O][C@H]([C@H](O)CO)[C@@H]1O (stereo not given in full)
selumetinib, 0.075 µM: Cn1cnc2c(F)c(Nc3ccc(Br)cc3Cl)c(C(=O)NOCCO)cc21
SU6656, 2 µM: CN(C)S(=O)(=O)c1ccc2c(c1)/C(=C/c1cc3c([nH]1)CCCC3)C(=O)N2
XAV939, 10 µM: Oc1nc(-c2ccc(C(F)(F)F)cc2)nc2c1CSCC2
darinaparsin, 2 µM: C[As](C)SC[C@H](NC(=O)CC[C@H](N)C(=O)O)C(=O)NCC(=O)O
lapatinib, 4 µM: CS(=O)(=O)CCNCc1ccc(-c2ccc3ncnc(Nc4ccc(OCc5cccc(F)c5)c(Cl)c4)c3c2)o1
dorsomorphin, 2 µM: c1cc(-c2cnn3cc(-c4ccc(OCCN5CCCCC5)cc4)cnc23)ccn1
Src-I1, 10 µM: COc1cc2ncnc(Nc3ccc(Oc4ccccc4)cc3)c2cc1OC
sorafenib, 2 µM: CNC(=O)c1cc(Oc2ccc(NC(=O)Nc3ccc(Cl)c(C(F)(F)F)c3)cc2)ccn1
ENMD-2076, 0.2 µM: Cc1cc(Nc2cc(N3CCN(C)CC3)nc(/C=C/c3ccccc3)n2)n[nH]1
GW0742, 10 µM: Cc1cc(SCc2sc(-c3ccc(C(F)(F)F)c(F)c3)nc2C)ccc1OCC(=O)O
VX-702, 2 µM: NC(=O)c1ccc(N(C(N)=O)c2c(F)cccc2F)nc1-c1ccc(F)cc1F
sunitinib, 2 µM: CCN(CC)CCNC(=O)c1c(C)[nH]c(/C=C2\C(=O)Nc3ccc(F)cc32)c1C
cediranib, 2 µM: COc1cc2c(Oc3ccc4[nH]c(C)cc4c3F)ncnc2cc1OCCCN1CCCC1
RKI-983, 2 µM: C[C@@H](N)c1ccc(C(=O)Nc2ccnc3[nH]ccc23)cc1
gemcitabine, 0.002 µM: Nc1ccn([C@@H]2O[C@H](CO)[C@@H](O)C2(F)F)c(=O)n1
GW9662, 10 µM: O=C(Nc1ccccc1)c1cc([N+](=O)[O-])ccc1Cl
enzastaurin, 4 µM: Cn1cc(C2=C(c3cn(C4CCN(Cc5ccccn5)CC4)c4ccccc34)C(=O)NC2=O)c2ccccc21
OSU-03012, 5 µM: NCC(=O)Nc1ccc(-n2nc(C(F)(F)F)cc2-c2ccc3c(ccc4ccccc43)c2)cc1
KU-55933, 5 µM: O=c1cc(-c2cccc3c2Sc2ccccc2S3)oc(N2CCOCC2)c1
FK866, 0.05 µM: O=C(/C=C/c1cccnc1)NCCCCC1CCN(C(=O)c2ccccc2)CC1
dovitinib, 0.5 µM: CN1CCN(c2ccc3nc(-c4c(N)c5c(F)cccc5[nH]c4=O)[nH]c3c2)CC1
TCS401, 8.33 µM: O=C(O)C(=O)Nc1sc2c(c1C(=O)O)CCNC2
SNS-314, 0.004 µM: O=C(Nc1cccc(Cl)c1)Nc1ncc(CCNc2ncnc3ccsc23)s1
YM155, 0.002 µM: COCC[n+]1c2c(n(Cc3cnccn3)c1C)C(=O)c1ccccc1C2=O

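Human melanoma cells were exposed to a pair of drugs for 72 h in 1,536-well plates and read by automated microscopy after fixing and staining. Each value is the cleaved-PARP-positive fraction of nuclei relative to DMSO-treated wells, in %, so that 100 equals the control and higher values mean more apoptosis. Concentrations were fixed for each drug; these are the higher of two levels. The file gives one value for each pair and line, without errors, so small differences may be noise. The marker varies much from line to line, for technical or biological reasons.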
This is part of the screen, not chosen by result.
A dash means that no value is listed here.

Second drug,MEL-HO,SK-MEL-28,SK-MEL-5,C32,IST-MEL1,UACC-257,WM1716,WM3619,COLO 800,WM3526
GW9662,89.0,49.3,186,94.5,105,36.6,122,147,209,166
dorsomorphin,139,49.7,550,105,248,26.4,191,101,107,149
FK866,212,26.0,126,168,76.7,57.3,54.1,103,87.2,214
dovitinib,341,77.1,287,145,134,81.9,34.1,142,73.5,166
stibogluconate,90.2,119,121,30.9,68.8,20.1,128,126,142,137
TCS401,92.7,-,114,84.3,241,60.7,589,84.8,87.8,108
SU6656,238,31.0,158,63.6,132,38.4,92.6,111,246,289
ENMD-2076,38.6,179,267,310,189,97.8,180,101,136,134
sunitinib,110,72.9,163,105,91.8,70.6,99.8,96.0,93.6,320
selumetinib,69.2,107,447,110,37.2,113,119,161,184,476
cediranib,56.4,107,147,70.0,44.7,32.2,43.0,92.1,126,89.0
RKI-983,415,242,492,1020,80.9,267,392,99.8,44.9,324
Src-I1,174,134,396,94.3,53.6,62.6,99.2,251,57.1,223
ruxolitinib,61.3,44.1,297,100,116,35.5,65.7,97.0,89.8,184
sorafenib,191,-,139,91.1,85.0,52.0,158,113,102,205
GW0742,238,191,39.8,223,84.7,26.1,116,112,104,144
KU-55933,449,122,135,84.1,131,53.4,131,117,41.0,285
OSU-03012,89.3,597,127,469,79.2,39.3,170,255,332,640
YM155,161,321,898,280,129,1840,121,101,67.8,737
VX-702,49.6,14.4,96.7,45.4,179,110,68.5,106,182,113
enzastaurin,47.2,271,152,176,327,21.6,135,73.1,251,106
SNS-314,59.8,156,435,105,112,159,28.2,212,118,272
darinaparsin,185,35.0,195,57.2,34.2,27.8,219,96.2,99.2,185
XAV939,91.7,94.4,61.5,159,137,31.4,33.0,122,102,84.2
gemcitabine,43.8,116,208,25.7,114,20.4,147,119,55.2,122
lapatinib,190,127,228,251,64.7,112,41.1,153,29.3,202

From a melanoma drug combination screen (doi:10.1371/journal.pone.0140310); values rounded.